Measured values from paper PMC10640650.
Results are given in words; binding and its absence hold for the method and conditions named. Binding seen in cells or lysates may run through a third protein. Some entries that bind do so weakly or less than the wild type.

Amino acid sequences for entries named in this document (tags omitted). A change or cut given only in a name is not applied to a line headed by its entry.
UniProt Q99MQ3: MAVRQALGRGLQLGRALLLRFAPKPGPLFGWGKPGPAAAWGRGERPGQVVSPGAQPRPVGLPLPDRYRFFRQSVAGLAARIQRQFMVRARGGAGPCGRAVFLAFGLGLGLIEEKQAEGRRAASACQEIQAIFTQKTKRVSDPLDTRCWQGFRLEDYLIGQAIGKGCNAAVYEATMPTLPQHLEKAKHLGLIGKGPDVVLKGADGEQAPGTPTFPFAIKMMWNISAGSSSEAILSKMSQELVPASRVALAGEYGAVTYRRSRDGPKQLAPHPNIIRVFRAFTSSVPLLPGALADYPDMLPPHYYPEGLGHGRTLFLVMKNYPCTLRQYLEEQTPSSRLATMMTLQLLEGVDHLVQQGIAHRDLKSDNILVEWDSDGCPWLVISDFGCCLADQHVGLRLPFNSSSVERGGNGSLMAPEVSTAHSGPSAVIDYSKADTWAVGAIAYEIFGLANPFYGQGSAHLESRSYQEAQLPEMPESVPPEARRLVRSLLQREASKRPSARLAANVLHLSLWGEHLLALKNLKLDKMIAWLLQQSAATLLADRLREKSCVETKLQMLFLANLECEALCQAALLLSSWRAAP

Target: PPAR-γ (UniProt P37238)
Assay: co-IP; 200 μg protein lysate supernatant with 2 μg FKBP51 or PPAR-γ antibody, 24 h at 4 °C, then Dynabeads 2 h at 4 °C; Western blot for FKBP51, PPAR-γ and PINK1; normal rabbit IgG as negative control

binding: binds
Substance: PTEN-induced putative kinase 1 (from UniProt Q99MQ3 78-580)
